These are yes or no findings as the source states them, for the method shown. In cells and extracts the contact can be indirect. Here binding means that the protein was enriched with, or labelled near, the bait; the list need not be complete. Tags and fused reporters may be left off the sequences shown.
Target: T1, Flag-tagged GNL3 (Flag-GNL3), wild type (human) (UniProt Q9BVP2)
T1 sequence: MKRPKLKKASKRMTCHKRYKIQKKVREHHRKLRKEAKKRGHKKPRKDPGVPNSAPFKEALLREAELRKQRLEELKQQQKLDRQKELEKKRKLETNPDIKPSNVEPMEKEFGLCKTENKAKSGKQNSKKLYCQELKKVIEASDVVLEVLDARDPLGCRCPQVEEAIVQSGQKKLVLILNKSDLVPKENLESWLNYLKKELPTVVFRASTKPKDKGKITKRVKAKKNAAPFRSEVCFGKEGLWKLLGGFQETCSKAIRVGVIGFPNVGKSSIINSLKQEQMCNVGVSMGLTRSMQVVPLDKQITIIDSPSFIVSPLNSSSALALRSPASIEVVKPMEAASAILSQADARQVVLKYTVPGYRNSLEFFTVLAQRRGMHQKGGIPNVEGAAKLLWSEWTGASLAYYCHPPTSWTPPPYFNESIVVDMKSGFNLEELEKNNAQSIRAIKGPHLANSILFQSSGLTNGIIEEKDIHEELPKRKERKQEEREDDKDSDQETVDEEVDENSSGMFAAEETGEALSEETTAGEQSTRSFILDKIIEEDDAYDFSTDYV
Assay: affinity purification with mass spectrometry; 293 cells stably expressing control or Flag-GNL3; NP40 lysis buffer; anti-Flag (M2) agarose, 4 C, 4 h; elution with Flag peptide; LC-MS/MS

The chains behind the UniProt entries cited, without tags or fusion partners.
UniProt P54132: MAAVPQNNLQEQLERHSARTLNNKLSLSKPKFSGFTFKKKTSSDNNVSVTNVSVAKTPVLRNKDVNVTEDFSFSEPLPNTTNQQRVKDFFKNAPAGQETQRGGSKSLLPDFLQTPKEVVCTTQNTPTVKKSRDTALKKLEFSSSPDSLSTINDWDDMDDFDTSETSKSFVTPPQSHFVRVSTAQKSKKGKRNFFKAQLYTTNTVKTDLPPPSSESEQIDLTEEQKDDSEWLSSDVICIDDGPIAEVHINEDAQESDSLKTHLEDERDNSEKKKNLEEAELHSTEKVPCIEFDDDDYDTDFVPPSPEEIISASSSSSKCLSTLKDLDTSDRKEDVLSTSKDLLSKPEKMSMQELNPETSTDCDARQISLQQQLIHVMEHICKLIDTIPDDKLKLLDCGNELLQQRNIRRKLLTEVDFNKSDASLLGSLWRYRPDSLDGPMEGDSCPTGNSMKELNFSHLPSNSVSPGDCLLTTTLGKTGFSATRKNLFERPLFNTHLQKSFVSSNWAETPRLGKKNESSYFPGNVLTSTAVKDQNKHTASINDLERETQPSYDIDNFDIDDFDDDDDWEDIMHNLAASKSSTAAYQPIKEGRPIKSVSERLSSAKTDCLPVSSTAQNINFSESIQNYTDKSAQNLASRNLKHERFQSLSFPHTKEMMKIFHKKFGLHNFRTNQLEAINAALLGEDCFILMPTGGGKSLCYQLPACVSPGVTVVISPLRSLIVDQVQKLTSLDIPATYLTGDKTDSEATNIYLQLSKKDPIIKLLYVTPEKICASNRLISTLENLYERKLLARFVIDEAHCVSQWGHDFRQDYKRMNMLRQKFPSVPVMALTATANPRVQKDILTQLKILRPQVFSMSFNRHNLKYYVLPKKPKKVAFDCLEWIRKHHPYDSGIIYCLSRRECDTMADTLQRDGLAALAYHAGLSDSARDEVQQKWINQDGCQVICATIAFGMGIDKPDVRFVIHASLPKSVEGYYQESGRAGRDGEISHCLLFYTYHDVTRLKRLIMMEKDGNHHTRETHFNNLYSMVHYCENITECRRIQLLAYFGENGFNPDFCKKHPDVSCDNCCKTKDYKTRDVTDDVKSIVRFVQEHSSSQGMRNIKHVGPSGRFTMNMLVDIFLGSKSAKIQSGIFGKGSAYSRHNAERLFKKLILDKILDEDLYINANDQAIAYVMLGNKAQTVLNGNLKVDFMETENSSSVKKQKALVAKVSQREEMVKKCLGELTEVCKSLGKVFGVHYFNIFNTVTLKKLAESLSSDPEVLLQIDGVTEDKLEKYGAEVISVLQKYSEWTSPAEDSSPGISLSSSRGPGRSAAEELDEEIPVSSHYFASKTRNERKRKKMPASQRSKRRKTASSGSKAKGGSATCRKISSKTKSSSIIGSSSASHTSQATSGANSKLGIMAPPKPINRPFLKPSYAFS
UniProt Q9H4L4: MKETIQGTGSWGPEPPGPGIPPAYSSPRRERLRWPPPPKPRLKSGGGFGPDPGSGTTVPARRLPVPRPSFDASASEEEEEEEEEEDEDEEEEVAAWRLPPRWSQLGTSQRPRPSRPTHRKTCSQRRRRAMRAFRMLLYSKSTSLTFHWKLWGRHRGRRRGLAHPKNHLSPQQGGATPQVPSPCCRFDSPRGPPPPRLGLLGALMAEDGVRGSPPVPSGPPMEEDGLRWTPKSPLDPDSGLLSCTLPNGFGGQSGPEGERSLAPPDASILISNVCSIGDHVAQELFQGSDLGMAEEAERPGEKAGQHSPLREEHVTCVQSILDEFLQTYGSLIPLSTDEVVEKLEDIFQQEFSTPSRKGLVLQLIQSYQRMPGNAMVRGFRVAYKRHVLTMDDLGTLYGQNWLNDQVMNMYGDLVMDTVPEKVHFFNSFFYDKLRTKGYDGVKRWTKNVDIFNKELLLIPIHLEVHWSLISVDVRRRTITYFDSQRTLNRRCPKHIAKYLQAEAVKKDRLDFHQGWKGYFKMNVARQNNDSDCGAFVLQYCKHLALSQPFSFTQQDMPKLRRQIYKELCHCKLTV

Substance	binding
BLM, endogenous (from UniProt P54132 1-1417)	binds
SENP3, endogenous (from UniProt Q9H4L4 1-574) (enzyme)	binds
